According to PubChem BioAssay AID330 (DTP/NCI, 2004):
The list does not hold the whole screen: it gathers tests that were run many times, whatever their T/C, doses with no T/C, and many T/C values between a quarter and a half above the control. Further doses and runs are listed elsewhere. T/C: endpoint of the treated group in % of that of the vehicle group. Some entries give survivors of the animals treated and no T/C: the source holds a T/C of zero for them, seemingly a mark for toxic or unscored doses. Some doses without a T/C left all or most animals alive at the check, yet need not have been tolerated: the source hardly ever lists a survival T/C far under the control, and the zero likely stands for such cases as well. Counts of survivors are from the toxicity check (mostly the fifth day) where no day follows; animals may have died later. Schedules are NCI's codes, read here as Q, the interval in days (D) or hours (H), X, the number of doses. Some doses were run more than once; their values stand side by side, smallest first. Where survival is the endpoint, this PubChem deposit counts one and a half times the control or more as active, and values a quarter to a half above the control carry no call in these data; other NCI protocols may use other cut-offs. Some T/C values are followed by the survivors on the day toxicity was checked, most often the fifth; where none is given, no animal had died by that day. Brackets with × say how often a value occurs here.

Test system: P388 leukemia ip, CD2F1 mice, survival T/C
Experiment: NCI In Vivo Anticancer Drug Screen. Data for tumor model P388 Leukemia (intraperitoneal) in CD2F1 (CDF1) mice
Details: T/C endpoint: median survival time, higher T/C = longer survival
[1] = dose: 50.0 mg/kg/injection, schedule: Q01DX005 (ip), vehicle: Klucel (hydroxypropylcellulose) (HPC)
[2] = dose: 50.0 mg/kg/injection, schedule: Q04DX003 (ip), vehicle: Klucel (hydroxypropylcellulose) (HPC)
[3] = dose: 100.0 mg/kg/injection, schedule: Q01DX005 (ip), vehicle: Klucel (hydroxypropylcellulose) (HPC)
[4] = dose: 100.0 mg/kg/injection, schedule: Q04DX003 (ip), vehicle: Klucel (hydroxypropylcellulose) (HPC)
[5] = dose: 200.0 mg/kg/injection, schedule: Q04DX002 (ip), vehicle: Klucel (hydroxypropylcellulose) (HPC)
[6] = dose: 200.0 mg/kg/injection, schedule: Q04DX003 (ip), vehicle: Klucel (hydroxypropylcellulose) (HPC)
[7] = dose: 400.0 mg/kg/injection, schedule: Q04DX003 (ip), vehicle: Klucel (hydroxypropylcellulose) (HPC)

## Nc1n[nH]c(N)n1
dose: 50.0 mg/kg/injection, schedule: Q01DX001 (ip), vehicle: Klucel (hydroxypropylcellulose) (HPC)
  T/C: 87, 92, 95, 98, 100 (5×), 101 (4×), 102, 103 (2×), 104, 104 [5 of 6 alive], 105 (3×), 106 (4×), 109 (3×), 110, 120 (2×), 130 % of control
[1]
  T/C: 89 [2 of 3 alive], 92, 95, 96 (2×), 97 (3×), 98 (3×), 99 (2×), 100, 101 (2×), 102 (2×), 103 (2×), 104, 105 (3×), 106 (3×), 107 (2×), 108, 112 (2×), 116, 130, 131 % of control
  survivor count: 5 of 6
dose: 50.0 mg/kg/injection, schedule: Q01DX009 (ip), vehicle: Klucel (hydroxypropylcellulose) (HPC)
  T/C: 90, 93, 95, 96, 98 (2×), 99 (4×), 100 (3×), 101 (3×), 102 (3×), 104 (3×), 105, 106, 107, 109, 110 (3×), 112, 116, 117, 119, 122 % of control (2×)
dose: 50.0 mg/kg/injection, schedule: Q04DX002 (ip), vehicle: Klucel (hydroxypropylcellulose) (HPC)
  T/C: 88, 89, 90, 93, 95, 98, 99 (4×), 100 (6×), 101, 102 (3×), 103, 104 (3×), 105, 106 (4×), 107, 108 (2×), 112 (2×), 115 % of control
[2]
  T/C: 88, 90, 91, 94 (2×), 96, 99, 100 (4×), 100 [5 of 6 alive], 101 (2×), 102 (3×), 104 (4×), 105 (4×), 106 (2×), 108, 110 (3×), 113, 116, 117 % of control
  survivor count: 5 of 6, 3 of 3, 6 of 6
dose: 100.0 mg/kg/injection, schedule: Q01DX001 (ip), vehicle: Klucel (hydroxypropylcellulose) (HPC)
  T/C: 92, 98, 99, 100 (2×), 100 [2 of 3 alive], 101 (2×), 102 (5×), 103 (2×), 104 (2×), 105 (3×), 106 (4×), 107, 108 (2×), 109 (2×), 110, 110 [5 of 6 alive], 115 % of control
[3]
  T/C: 96, 97 [2 of 3 alive], 98, 99, 100, 101 (3×), 102 (2×), 103, 105 (4×), 106, 107, 108, 109 (3×), 110 (2×), 111 (2×), 112 (2×), 112 [2 of 3 alive], 113, 114 (2×), 117, 124 [4 of 6 alive], 129 % of control
  survivor count: 2 of 3 and 6 of 6
dose: 100.0 mg/kg/injection, schedule: Q01DX009 (ip), vehicle: Klucel (hydroxypropylcellulose) (HPC)
  T/C: 93, 96, 98 (2×), 100 (3×), 101, 102 (3×), 102 [2 of 2 alive], 103 (3×), 104, 105, 107 (3×), 108 (2×), 109 (2×), 112 (2×), 115, 116, 119 (2×), 121, 122 (2×), 128, 133 % of control
dose: 100.0 mg/kg/injection, schedule: Q04DX002 (ip), vehicle: Klucel (hydroxypropylcellulose) (HPC)
  T/C: 91, 95, 97, 98, 99, 100 (4×), 101 (2×), 102, 103 (2×), 104, 105, 106 (3×), 107 (7×), 108 (3×), 109, 110, 111, 116, 120, 129 % of control
[4]
  T/C: 90, 94, 96, 99 (4×), 100 (4×), 102, 103, 104 (2×), 105 (3×), 106 (2×), 106 [5 of 6 alive], 108, 109 (2×), 110, 111 (2×), 111 [5 of 6 alive], 112, 113, 115, 117 % of control (2×)
  survivor count: 2 of 3, 3 of 3, 6 of 6
dose: 200.0 mg/kg/injection, schedule: Q01DX001 (ip), vehicle: Klucel (hydroxypropylcellulose) (HPC)
  T/C: 87, 100 (3×), 101 (2×), 102, 103 (3×), 104 (4×), 105 (2×), 106 (3×), 107, 109 (3×), 110, 112, 113, 114 (2×), 115, 117, 128, 140 % of control
dose: 200.0 mg/kg/injection, schedule: Q01DX005 (ip), vehicle: Klucel (hydroxypropylcellulose) (HPC)
  T/C: 95 [5 of 6 alive], 97, 101 [4 of 6 alive], 102 (2×), 105, 107, 108, 109, 110, 111, 112 (2×), 113, 114 (2×), 115 (3×), 116 (2×), 118 (2×), 119, 120 (3×), 121, 122 (2×), 125, 127, 128 [5 of 6 alive], 129, 144, 163 % of control
dose: 200.0 mg/kg/injection, schedule: Q01DX009 (ip), vehicle: Klucel (hydroxypropylcellulose) (HPC)
  T/C: 95 [2 of 3 alive], 100 (2×), 102, 103, 104, 105 (2×), 106, 107, 108 (2×), 110 (2×), 111 (2×), 112, 113, 114, 116 [5 of 6 alive], 117, 118, 119 (2×), 120 (2×), 124, 127, 129, 130 (2×), 131, 132, 133, 138 % of control
dose: 200.0 mg/kg/injection, schedule: Q01DX009 (ip), vehicle: saline with Tween-80
  T/C: 127 % of control
[5]
  T/C: 94, 95 (3×), 98, 99, 100, 101 (2×), 103 (2×), 104 (5×), 105, 106, 107 (3×), 108 (3×), 109 (4×), 110, 111 (2×), 112, 116, 119 % of control
  survivor count: 3 of 3
[6]
  T/C: 91, 93, 94, 95, 97 (3×), 99, 100, 101 (2×), 103 (2×), 104 (3×), 105 (4×), 106 (2×), 107, 108 (2×), 109, 111 (2×), 112 (2×), 114, 116, 117, 120, 129 % of control
  survivor count: 3 of 3 and 6 of 6
dose: 400.0 mg/kg/injection, schedule: Q01DX001 (ip), vehicle: Klucel (hydroxypropylcellulose) (HPC)
  T/C: 89, 99, 100 (4×), 101 (2×), 103, 104, 105 (2×), 106 (2×), 107 (2×), 109 (5×), 110 (2×), 111, 112, 115, 116, 118, 119, 120 % of control (3×)
dose: 400.0 mg/kg/injection, schedule: Q01DX005 (ip), vehicle: Klucel (hydroxypropylcellulose) (HPC)
  T/C: 101, 104 [5 of 6 alive], 107, 109 (2×), 110 [5 of 6 alive], 111, 112 (2×), 113, 114, 115, 115 [2 of 3 alive], 116, 116 [5 of 6 alive], 117 [2 of 3 alive], 120 (3×), 121, 122 (3×), 125 (2×), 127, 128 [5 of 6 alive], 129, 131 (3×), 132 (4×), 143 % of control
dose: 400.0 mg/kg/injection, schedule: Q01DX009 (ip), vehicle: Klucel (hydroxypropylcellulose) (HPC)
  T/C: 99 [4 of 6 alive], 102, 105, 114, 118, 119, 122 (2×), 123, 124 (2×), 125 (2×), 125 [5 of 6 alive], 126, 127, 128, 129, 130 (2×), 131 (4×), 135 (2×), 137 (2×), 138, 143, 144 (2×), 151, 152, 158 % of control
dose: 400.0 mg/kg/injection, schedule: Q01DX009 (ip), vehicle: saline with Tween-80
  T/C: 140 % of control
dose: 400.0 mg/kg/injection, schedule: Q04DX002 (ip), vehicle: Klucel (hydroxypropylcellulose) (HPC)
  T/C: 95, 97, 100 (3×), 101 (4×), 102, 103 (4×), 105 (2×), 107 (3×), 108 (2×), 109 (4×), 111 (3×), 112 (2×), 113, 114, 115, 118, 122 % of control
[7]
  T/C: 87, 96 [2 of 3 alive], 97, 98, 100 (2×), 101, 102, 103, 104 (2×), 105 (5×), 108 (2×), 109, 110 (3×), 111, 112 (2×), 113 (2×), 115, 116, 117 (2×), 120 (2×), 123 % of control (2×)
  survivor count: 3 of 3 and 6 of 6
